The target in this test is T1, myc-ERR1 (estrogen related receptor alpha) (UniProt P11474).
T1 sequence: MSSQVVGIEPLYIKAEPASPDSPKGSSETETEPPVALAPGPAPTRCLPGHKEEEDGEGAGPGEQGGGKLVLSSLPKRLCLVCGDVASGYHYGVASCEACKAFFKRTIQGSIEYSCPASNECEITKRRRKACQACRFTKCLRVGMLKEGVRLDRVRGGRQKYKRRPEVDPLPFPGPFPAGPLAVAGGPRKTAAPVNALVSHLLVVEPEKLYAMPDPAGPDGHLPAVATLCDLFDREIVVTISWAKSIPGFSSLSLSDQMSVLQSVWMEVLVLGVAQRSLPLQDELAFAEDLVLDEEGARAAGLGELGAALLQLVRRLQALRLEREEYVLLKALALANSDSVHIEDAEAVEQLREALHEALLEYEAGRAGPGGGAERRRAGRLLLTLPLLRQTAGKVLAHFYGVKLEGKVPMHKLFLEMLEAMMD
The experiment in a line: co-IP.

Sequences of proteins named here, by UniProt entry; tags and fusion partners are left off. A change or cut given only in a name is not applied to a line headed by its entry.
UniProt Q9P2E2: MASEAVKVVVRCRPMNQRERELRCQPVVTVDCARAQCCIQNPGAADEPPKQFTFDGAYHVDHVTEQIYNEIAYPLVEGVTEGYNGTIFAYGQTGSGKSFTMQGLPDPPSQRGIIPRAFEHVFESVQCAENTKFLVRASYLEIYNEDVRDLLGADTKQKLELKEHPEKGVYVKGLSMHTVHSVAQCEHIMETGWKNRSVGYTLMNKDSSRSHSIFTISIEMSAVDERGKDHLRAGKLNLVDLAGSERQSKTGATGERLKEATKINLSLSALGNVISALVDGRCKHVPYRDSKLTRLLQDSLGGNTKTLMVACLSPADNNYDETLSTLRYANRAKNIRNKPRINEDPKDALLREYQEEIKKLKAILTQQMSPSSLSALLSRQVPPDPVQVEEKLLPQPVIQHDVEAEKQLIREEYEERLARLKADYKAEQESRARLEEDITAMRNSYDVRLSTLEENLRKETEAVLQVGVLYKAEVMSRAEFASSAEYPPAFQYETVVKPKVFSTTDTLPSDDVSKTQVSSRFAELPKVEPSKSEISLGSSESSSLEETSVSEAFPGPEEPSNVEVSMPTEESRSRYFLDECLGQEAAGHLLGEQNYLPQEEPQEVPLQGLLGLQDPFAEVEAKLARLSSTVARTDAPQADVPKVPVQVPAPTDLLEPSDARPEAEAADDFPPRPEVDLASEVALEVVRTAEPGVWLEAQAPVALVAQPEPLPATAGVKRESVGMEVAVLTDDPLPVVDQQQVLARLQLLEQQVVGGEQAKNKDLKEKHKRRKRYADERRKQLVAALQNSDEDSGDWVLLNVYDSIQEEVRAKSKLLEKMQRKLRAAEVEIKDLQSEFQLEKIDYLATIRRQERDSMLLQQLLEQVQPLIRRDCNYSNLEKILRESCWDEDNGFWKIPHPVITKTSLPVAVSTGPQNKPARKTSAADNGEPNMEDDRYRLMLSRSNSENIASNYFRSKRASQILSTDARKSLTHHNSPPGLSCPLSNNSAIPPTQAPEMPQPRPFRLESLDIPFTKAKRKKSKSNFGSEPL

Results are given in words; binding and its absence hold for the method and conditions named. In cells and extracts the contact can be indirect. Binding can be weak; no strength is given. Where a sequence is shown, tags or fusion partners need not be part of it.

With “GFP-KIF17-T (NR box-containing KIF17 tail domain) (from UniProt Q9P2E2) (domain or fragment)”, the binding result is recorded as “binds”.

For the substance “GFP-KIF1B-NR1 (KIF1B fragment containing nuclear receptor box motif 1) (human) (domain or fragment)”, the binding entry is reported as “binds”.

Values taken from doi:10.1101/2022.11.08.515201.
